# Reference: PubChem BioAssay AID1347076 (National Center for Advancing Translational Sciences (NCATS), 2019)
# Screen size: about 400,000 compounds; about 13,000 (3.2%) were called active. Inconclusive results, whose numbers are uncertain, are shown with a selection of clear calls. Calls follow the shape of the dose curve; as a rule, active = well fitted cell-killing curve with a large enough effect; inconclusive = small, poorly fitted or top-dose-only effect, or effect the other way; inactive = flat fitted curve, though single readings scatter. A potency beside an inconclusive call is a rough fit, not a confirmed value.
# Assay: qHTS assay for MDR1-selective chemotherapeutics: Primary screen using the drug-selected MDR subline cells KB-V1; also: nearly all actives have a fitted effect of over 60% in size
# Details: KB-V1 MDR cells viability, CellTiter-Glo, 72 h; activity change, negative = cytotoxicity: at 46.1 µM (top of the series)
# Method in brief: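 Luminescent ATP read-out (CellTiter-Glo, 10 min) measures survival of drug-selected KB-V1 MDR cells after 72 h, 37 degrees C compound exposure. Medium: phenol-red-free DMEM, 10% FBS. Values from fitted concentration-response curves.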
# % is scaled to controls: 0 for no effect and ±100 for the full control effect; potency is read from the fitted curve at half-maximal effect.
SMILES,Potency,"activity change, negative = cytotoxicity"
CCCc1c(C(=O)N/N=C(\C)c2ccccn2)nnn1-c1nonc1N,"inconclusive: 0.517 µM [cytotoxic, full curve, poor fit]",–
Cc1c(Br)c([N+](=O)[O-])nn1CC(=O)NCc1ccccn1,"inconclusive: 29.1 µM [cytotoxic, partial curve, poor fit]",–
COc1ccc(/C=C2\SC(=O)N(CCCC(=O)Nc3cc(Cl)ccc3C(=O)O)C2=O)cc1,inactive,–
CCOc1ccc2nc(N/C(N)=N/C(=S)Nc3cccc(C)c3)nc(C)c2c1,active: 23.1 µM,–
O=C(CNc1cccc(S(=O)(=O)N2CCCCC2)c1)Nc1ccc(C(F)(F)F)cc1,"inconclusive: 25.9 µM [cytotoxic, single point]",–
O=C(NCCCN1CCOCC1)c1cnccn1,inactive,–
CC(=O)Nc1ccc(OCC(O)CN2CCN(c3cccc(Cl)c3)CC2)cc1 (stereo not given),active: 16.4 µM,–
CCN(CC)c1ccc(NC(=O)c2cccc(F)c2)c(C)c1,"inconclusive: 5.8 µM [cytotoxic, full curve, poor fit]",–
Cc1cc(C)n2nc(SCC(=O)N3CCN(c4ccccc4)CC3)nc2n1,active: 11.6 µM,–
CCCCCCCCC(c1nc2ccccc2[nH]1)N1CCN=C(c2ccccc2)C1=O (stereo not given),inactive,–
COc1cccc(NC(=O)C2CCN(Cc3cnn(-c4ccccc4)c3-n3cccc3)CC2)c1,"inconclusive: 23.1 µM [cytotoxic, partial curve]",–
COc1ccc(Cl)cc1NC(=O)CSc1nnc(C2CC2)n1C,"inconclusive: 11.6 µM [cytotoxic, partial curve, poor fit]",–
CC(=O)OC1CCC2(C)C(COc3ccc4ccc(=O)oc4c3)C(C)(O)CCC2C1(C)C (stereo not given),"inconclusive: 18.4 µM [cytotoxic, partial curve, poor fit]",–
N#CCCN1CCN(C(=S)c2ccc(-c3ccc(Cl)c(Cl)c3)o2)CC1,inactive,–
O=C(O)c1c[nH]n2c(=S)ncnc12,"inconclusive: 29.1 µM [cytotoxic, single point]",–
O=c1c2ccccc2oc2ccc(NCCCn3ccnc3)cc12,–,inconclusive: 1.01%
CCc1sc(C(=O)Nc2cccc(-n3cnnn3)c2)cc1C,"inconclusive: 29.1 µM [cytotoxic, single point]",–
O=C1OC(CN2CCOCC2)CN1N=Cc1ccc([N+](=O)[O-])o1 (stereo not given),"inconclusive: 29.1 µM [cytotoxic, single point]",–
CCCCCOc1ccc(C(=O)CCN2CCOCC2)cc1,inactive,–
COc1ccc(C(=O)Nc2ccccc2)cc1NC(=O)c1ccc([N+](=O)[O-])cc1,"inconclusive: 9.2 µM [cytotoxic, partial curve, poor fit]",–
COc1ccc([N+](=O)[O-])cc1-n1cnnn1,"inconclusive: 29.1 µM [rising, single point]",–
CC1CN(C(=O)c2ccc(CNS(=O)(=O)c3cccc(C(F)(F)F)c3)cc2)CC(C)O1 (stereo not given),"inconclusive: 11.2 µM [cytotoxic, partial curve, poor fit]",–
COc1ccc(CN2C(=O)C(C)Nc3ncnc(N4CCN(c5ccccn5)CC4)c32)cc1 (stereo not given),inactive,–

SMILES,Potency,"activity change, negative = cytotoxicity"
CCc1ccc(Nc2nnc(SCC(=O)Nc3cccnc3Cl)s2)cc1,active: 16.4 µM,–
O=C(COC(=O)Cn1cnc2ccccc21)Nc1ccc(Br)cc1,inactive,–
CC(C)(C)OC(=O)N[C@H](Cc1ccccc1)C(=O)N1CCC[C@@H]1C(=O)O,inactive,–
Cc1cccc(NC(=O)c2ccc(OCC(=O)NCc3ccccc3)cc2)c1C,active: 14.6 µM,–
O=[N+]([O-])c1cccc(-c2nc3ccccc3s/c2=N/O)c1,"inconclusive: 20.6 µM [cytotoxic, partial curve, poor fit]",–
O=C(CSc1nnc(CNC(=O)c2cccc(C(F)(F)F)c2)o1)NC1CCCCC1,"inconclusive: 29.1 µM [rising, single point]",–
COc1cc(NC(=O)c2cc(-c3ccccc3Cl)on2)cc(OC)c1OC,"inconclusive: 4.61 µM [cytotoxic, full curve, poor fit]",–
Cc1ccc2nsnc2c1S(=O)(=O)N(Cc1cc2cccc(C)c2[nH]c1=O)CC1CCCO1 (stereo not given),"inconclusive: 29.1 µM [cytotoxic, single point]",–
Cc1cccc(NC(=O)c2cccc(NC(=O)c3ccccc3)c2)n1,"inconclusive: 23.1 µM [cytotoxic, single point]",–
CCN(CC)CCNC(=O)CS(=O)Cc1nc(-c2ccc(C)cc2)oc1C (stereo not given),inactive,–
CC1CCN(S(=O)(=O)c2ccc(C(=O)NCc3cccnc3)cc2)CC1,inactive,–
CCN(CC)C(=O)[C@H]1C[C@H](CC(=O)NCC23CC4CC(CC(C4)C2)C3)C(=O)N2CCc3c([nH]c4cc(-c5ccco5)ccc34)[C@]12C,inactive,–
O=[N+]([O-])c1ncccc1Oc1nc(-c2cccnc2)nc2ccccc12,"inconclusive: 32.6 µM [cytotoxic, partial curve, poor fit]",–
O=C(CCSCCc1ccccn1)Nc1ccccc1C(F)(F)F,inactive,–
c1ccc(Cn2ccnc2SCc2nnc(-c3ccccc3)o2)cc1,"inconclusive: 23.1 µM [cytotoxic, single point]",–
Cc1noc(C)c1COc1ccccc1C(=O)N1CCN(S(=O)(=O)c2ccc(F)c(F)c2)CC1,"inconclusive: 29.1 µM [rising, single point]",–
Cc1ccc(NC(=O)c2ccc(OC(=S)N3CCOCC3)cc2)cc1,active: 6.51 µM,–
COc1cc(NC(=O)COC(=O)CC2CC3CCC2C3)cc(OC)c1 (stereo not given),inactive,–
CN(C)S(=O)(=O)c1cc(NC(=O)CN2CCN(c3ccccc3O)CC2)ccc1Cl,"inconclusive: 8.2 µM [cytotoxic, partial curve]",–
CC(C)C[C@H]1CNC(=O)C(=O)N1C[C@@H]1CCCN1C[C@H](Cc1ccccc1)N1C[C@H](Cc2ccccc2)N(CCc2ccccc2)C(=O)C1=O,inactive,–
COc1cc(C(=O)N/N=C/c2cc([N+](=O)[O-])cs2)cc(OC)c1OC,active: 1.16 µM,–
COc1ccc2c(c1)cc(C)c1nnc(SCC(=O)N(C)c3nc(-c4ccccc4)cs3)n12,"inconclusive: 5.17 µM [cytotoxic, full curve]",–

# A different layout for 3 compounds above.
SMILES	Potency	activity change, negative = cytotoxicity
O=[N+]([O-])c1cccc(-c2nc3ccccc3s/c2=N/O)c1	inconclusive: 20.6 µM [cytotoxic, partial curve, poor fit]	–
O=C(CSc1nnc(CNC(=O)c2cccc(C(F)(F)F)c2)o1)NC1CCCCC1	inconclusive: 29.1 µM [rising, single point]	–
COc1cc(NC(=O)c2cc(-c3ccccc3Cl)on2)cc(OC)c1OC	inconclusive: 4.61 µM [cytotoxic, full curve, poor fit]	–
